From paper PMC8197126
These are yes or no findings as the source states them, for the method shown. In cells and extracts the contact can be indirect. Some results given as binding are weak or reduced against the parent protein; the word gives no strength.

The chains behind the UniProt entries cited, without tags or fusion partners.
UniProt P09651: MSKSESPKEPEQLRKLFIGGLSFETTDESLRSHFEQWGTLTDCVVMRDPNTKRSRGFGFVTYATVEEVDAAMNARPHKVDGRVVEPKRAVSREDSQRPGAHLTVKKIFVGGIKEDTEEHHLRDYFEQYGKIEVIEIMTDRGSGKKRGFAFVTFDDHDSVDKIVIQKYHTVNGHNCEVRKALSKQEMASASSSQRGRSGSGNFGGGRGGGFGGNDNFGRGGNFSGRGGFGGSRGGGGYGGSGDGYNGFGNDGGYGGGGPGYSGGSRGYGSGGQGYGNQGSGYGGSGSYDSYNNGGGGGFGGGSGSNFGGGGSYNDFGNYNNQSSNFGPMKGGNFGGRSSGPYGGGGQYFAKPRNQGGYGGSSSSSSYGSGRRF
UniProt P55884: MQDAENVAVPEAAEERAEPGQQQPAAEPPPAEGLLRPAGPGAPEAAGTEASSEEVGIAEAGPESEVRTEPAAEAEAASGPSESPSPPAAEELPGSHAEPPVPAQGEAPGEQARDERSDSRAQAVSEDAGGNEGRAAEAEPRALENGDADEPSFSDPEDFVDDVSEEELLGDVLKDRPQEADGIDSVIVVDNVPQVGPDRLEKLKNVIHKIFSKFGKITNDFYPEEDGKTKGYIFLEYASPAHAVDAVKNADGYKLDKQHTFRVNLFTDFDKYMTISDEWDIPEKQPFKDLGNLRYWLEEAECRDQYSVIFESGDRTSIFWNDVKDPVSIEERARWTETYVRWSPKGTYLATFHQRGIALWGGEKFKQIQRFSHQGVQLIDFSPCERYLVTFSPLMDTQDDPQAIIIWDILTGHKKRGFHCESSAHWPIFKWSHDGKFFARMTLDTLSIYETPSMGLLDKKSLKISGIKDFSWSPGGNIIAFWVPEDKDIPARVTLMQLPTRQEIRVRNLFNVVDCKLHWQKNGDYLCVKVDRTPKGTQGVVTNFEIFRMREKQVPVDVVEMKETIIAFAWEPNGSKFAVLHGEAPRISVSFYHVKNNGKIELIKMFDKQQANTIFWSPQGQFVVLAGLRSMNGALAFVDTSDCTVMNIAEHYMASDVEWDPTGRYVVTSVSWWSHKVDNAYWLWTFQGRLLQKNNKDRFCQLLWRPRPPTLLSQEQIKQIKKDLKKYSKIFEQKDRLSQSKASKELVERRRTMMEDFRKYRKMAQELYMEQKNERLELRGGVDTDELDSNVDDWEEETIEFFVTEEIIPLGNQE

Target: Heterogeneous nuclear ribonucleoprotein (HNRNP) A1 (human (endogenous in HEK293A)) (UniProt P09651)
Test: co-IP; HEK293A cells, immunoprecipitation with an antibody for HNRNP A1, immunoblot for endogenous EIF3B

binding: binds
Substance: translation initiation factor EIF3B (from UniProt P55884 1-814)
